The list shows only some results of the screen, not a fair sample: it gathers tests that were run many times, whatever their T/C, doses with no T/C, and many T/C values between a quarter and a half above the control. Other doses and runs of a compound stand elsewhere. T/C gives the treated animals as a percentage of the vehicle group. Some entries give survivors of the animals treated and no T/C: the source files T/C as zero there, which appears to mark a toxic dose or a test without result, not a measured value. Some survivor counts are full or nearly so, which does not show that the dose was tolerated: the source hardly ever lists a survival T/C far under the control, and the zero likely stands for such cases as well. Counts of survivors are from the toxicity check (mostly the fifth day) where no day follows; animals may have died later. Schedules are NCI's codes, read here as Q, the interval in days (D) or hours (H), X, the number of doses. Where survival is the endpoint, this PubChem deposit counts one and a half times the control or more as active, and values a quarter to a half above the control carry no call in these data; other NCI protocols may use other cut-offs. Some T/C values are followed by the survivors on the day toxicity was checked, most often the fifth; where none is given, no animal had died by that day. Some entries hold several experiments; their values stand side by side, smallest first.
Tested on: BDF1 mice, P388 leukemia ip, median survival T/C
Test: NCI In Vivo Anticancer Drug Screen. Data for tumor model P388 Leukemia (intraperitoneal) in B6D2F1 (BDF1) mice
Details: T/C endpoint: median survival time, higher T/C = longer survival
How it was run: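 Mice carrying the transplantable tumour receive compound or vehicle. Survival is followed in each arm, and the treated measure is divided by the vehicle measure.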

[1] = dose: 50.0 mg/kg/injection, schedule: Q01DX009 (ip), vehicle: saline with Tween-80
[2] = dose: 100.0 mg/kg/injection, schedule: Q01DX009 (ip), vehicle: saline with Tween-80
[3] = dose: 200.0 mg/kg/injection, schedule: Q01DX009 (ip), vehicle: saline with Tween-80
[4] = dose: 110.0 mg/kg/injection, schedule: Q04DX003 (ip), vehicle: Klucel (hydroxypropylcellulose) (HPC)
[5] = dose: 165.0 mg/kg/injection, schedule: Q04DX003 (ip), vehicle: Klucel (hydroxypropylcellulose) (HPC)
[6] = dose: 200.0 mg/kg/injection, schedule: Q04DX003 (ip), vehicle: saline with Tween-80
[7] = dose: 400.0 mg/kg/injection, schedule: Q04DX003 (ip), vehicle: saline with Tween-80
[8] = dose: 12.5 mg/kg/injection, schedule: Q04DX003 (ip), vehicle: saline with Tween-80
[9] = dose: 12.5 mg/kg/injection, schedule: Q04DX003 (ip), vehicle: saline

For CC(=O)OC12CC[N+]3(C)CCCCC3C1=Nc1ccccc12 (configuration not stated), the survivor count [1] was 0 of 6, the survivor count [2] was 0 of 6 and the survivor count [3] was 0 of 6.
COC1=C(C)C(=O)C2=C(C1=O)C1C3CC4=C(C(=O)C(OC)=C(C)C4=O)C(CNC(=O)C(C)=O)N3C(C#N)C(C2)N1C (configuration not stated) was tested, and the T/C (dose: 0.15 mg/kg/injection, schedule: Q01DX009 (ip), vehicle: Klucel (hydroxypropylcellulose) (HPC)) was 136 % of control.
In the case of O=S(=O)(F)c1cccc(C[P+](c2ccccc2)(c2ccccc2)c2ccccc2)c1, the T/C (dose: 8.25 mg/kg/injection, schedule: Q01DX009 (ip), vehicle: Klucel (hydroxypropylcellulose) (HPC)) is reported as 131 % of control, the T/C (dose: 16.5 mg/kg/injection, schedule: Q01DX009 (ip), vehicle: Klucel (hydroxypropylcellulose) (HPC)) is reported as 130 % of control and the T/C (dose: 25.0 mg/kg/injection, schedule: Q01DX009 (ip), vehicle: Klucel (hydroxypropylcellulose) (HPC)) is reported as 125 % of control [5 of 6 alive]. For the same compound, the survivor count (dose: 55.0 mg/kg/injection, schedule: Q01DX009 (ip), vehicle: Klucel (hydroxypropylcellulose) (HPC)) was 4 of 6, the T/C [4] was 116, 120 [5 of 6 alive], 125, 140 % of control and the survivor count [4] was 4 of 6. The T/C [5] was 125 and 127 % of control, the survivor count [5] was 4 of 6 and the survivor count (dose: 170.0 mg/kg/injection, schedule: Q04DX003 (ip), vehicle: Klucel (hydroxypropylcellulose) (HPC)) was 5 of 6.
In the case of CCCCCCOP(=O)(N1CC1)N1CC1, the survivor count (dose: 100.0 mg/kg/injection, schedule: Q01DX009 (ip), vehicle: saline) is reported as 4 of 6, the survivor count [6] is reported as 4 of 6 and the survivor count [7] is reported as 1 of 6.
In the case of Cc1nc2nc(N)nc(N)c2nc1Sc1ccc(Cl)cc1, the survivor count [6] is reported as 6 of 6.
In the case of COc1cc2c(c(OC)c1OC)-c1cc3c(cc1[C@@H](OC(C)=O)[C@@H]1COC(=O)[C@H]1C2)OCO3, the T/C (dose: 5.3 mg/kg/injection, schedule: Q01DX009 (ip), vehicle: saline with Tween-80) is reported as 135 % of control, the T/C (dose: 5.6 mg/kg/injection, schedule: Q01DX009 (ip), vehicle: saline) is reported as 130 % of control and the T/C (dose: 8.0 mg/kg/injection, schedule: Q01DX009 (ip), vehicle: saline with Tween-80) is reported as 140 % of control. For the same compound, the T/C (dose: 8.0 mg/kg/injection, schedule: Q01DX009 (ip), vehicle: saline) was 125 % of control and the T/C (dose: 12.0 mg/kg/injection, schedule: Q01DX009 (ip), vehicle: saline with Tween-80) was 125 % of control.
CC1(C)C2CCC1(C)C1OC(=O)NN=C21 (configuration not stated) was tested, and the survivor count (dose: 100.0 mg/kg/injection, schedule: Q01DX001 (ip), vehicle: saline with Tween-80) was 1 of 6, the survivor count (dose: 200.0 mg/kg/injection, schedule: Q01DX001 (ip), vehicle: saline with Tween-80) was 0 of 6 and the survivor count (dose: 400.0 mg/kg/injection, schedule: Q01DX001 (ip), vehicle: saline with Tween-80) was 0 of 6.
In the case of C[n+]1c(/C=C/c2ccc(N(CCC(=O)O)CCC(=O)O)cc2)ccc2cc(Cl)ccc21, the survivor count (dose: 50.0 mg/kg/injection, schedule: Q01DX001 (ip), vehicle: saline with Tween-80) is reported as 4 of 6.
With C[N+]1(C)N=C([O-])N(c2ccc([N+](=O)[O-])cc2)C1=O the survivor count [3] was 5 of 6.
Oc1ccc(C2CCCCC2)c(O)c1 was tested, and the survivor count (dose: 100.0 mg/kg/injection, schedule: Q04DX003 (ip), vehicle: Klucel (hydroxypropylcellulose) (HPC)) was 6 of 6.
With CC(=O)c1c(O)c(C)c(O)c2c1OC1=CC(=O)C(C(C)=O)C(=O)C12C (configuration not stated) the T/C (dose: 50.0 mg/kg/injection, schedule: Q01DX009 (ip), vehicle: gum acacia) was 132 % of control, the T/C (dose: 100.0 mg/kg/injection, schedule: Q01DX009 (ip), vehicle: gum acacia) was 130 % of control and the T/C (dose: 118.0 mg/kg/injection, schedule: Q01DX010 (ip), vehicle: saline) was 130 % of control. For the same compound, the T/C (dose: 177.0 mg/kg/injection, schedule: Q01DX010 (ip), vehicle: saline) was 135 % of control, the survivor count (dose: 200.0 mg/kg/injection, schedule: Q01DX009 (ip), vehicle: gum acacia) was 6 of 6 and the survivor count (dose: 266.0 mg/kg/injection, schedule: Q01DX010 (ip), vehicle: saline) was 5 of 6. The survivor count (dose: 400.0 mg/kg/injection, schedule: Q01DX009 (ip), vehicle: gum acacia) was 6 of 6.
For CC(=O)Nc1cc(NC(C)=O)cc(N(CCO)CCO)c1, the survivor count (dose: 25.0 mg/kg/injection, schedule: Q01DX009 (ip), vehicle: water) was 6 of 6, the survivor count (dose: 100.0 mg/kg/injection, schedule: Q01DX009 (ip), vehicle: water) was 6 of 6 and the survivor count (dose: 200.0 mg/kg/injection, schedule: Q01DX009 (ip), vehicle: water) was 6 of 6. The survivor count (dose: 400.0 mg/kg/injection, schedule: Q01DX009 (ip), vehicle: water) was 6 of 6.
With COc1cc2ccc3c[n+]4ccccc4cc3c2cc1OC the T/C (dose: 100.0 mg/kg/injection, schedule: Q01DX009 (ip), vehicle: Klucel (hydroxypropylcellulose) (HPC)) was 129 % of control.
In the case of NC(=O)c1ccc(N)nc1, the T/C (dose: 8.25 mg/kg/injection, schedule: Q04DX003 (ip), vehicle: saline with Tween-80) is reported as 130 % of control, the survivor count (dose: 8.25 mg/kg/injection, schedule: Q04DX003 (ip), vehicle: saline) is reported as 6 of 6 and the T/C [8] is reported as 135 % of control. For the same compound, the T/C [9] was 128 % of control, the survivor count [9] was 6 of 6 and the survivor count (dose: 18.75 mg/kg/injection, schedule: Q04DX003 (ip), vehicle: saline) was 6 of 6.
For COc1cc([C@@H]2c3cc4c(c(O)c3C[C@H]3COC(=O)[C@@H]32)OCO4)cc(OC)c1OC, the T/C (dose: 0.5 mg/kg/injection, schedule: Q01DX010 (ip), vehicle: saline) was 127 % of control, the T/C (dose: 1.0 mg/kg/injection, schedule: Q01DX010 (ip), vehicle: carboxymethylcellulose (CMC)) was 128 % of control and the T/C (dose: 1.0 mg/kg/injection, schedule: Q01DX010 (ip), vehicle: saline) was 145 % of control. For the same compound, the T/C (dose: 2.0 mg/kg/injection, schedule: Q01DX001 (ip), vehicle: other) was 131 % of control, the T/C (dose: 2.0 mg/kg/injection, schedule: Q01DX010 (ip), vehicle: carboxymethylcellulose (CMC)) was 133 % of control and the T/C (dose: 4.0 mg/kg/injection, schedule: Q01DX001 (ip), vehicle: other) was 142 % of control. For the same compound, the survivor count (dose: 4.0 mg/kg/injection, schedule: Q01DX010 (ip), vehicle: carboxymethylcellulose (CMC)) was 3 of 6, the T/C (dose: 4.0 mg/kg/injection, schedule: Q01DX010 (ip), vehicle: other) was 145 % of control and the survivor count (dose: 4.0 mg/kg/injection, schedule: Q01DX010 (ip), vehicle: saline) was 2 of 6. For the same compound, the T/C (dose: 8.0 mg/kg/injection, schedule: Q01DX001 (ip), vehicle: saline) was 131 % of control and the survivor count (dose: 8.0 mg/kg/injection, schedule: Q01DX010 (ip), vehicle: saline) was 0 of 6.
In the case of CCOC(=O)c1ccc(N=CNc2ccc(C(=O)OCC)cc2)cc1, the survivor count [8] is reported as 6 of 6, the survivor count (dose: 25.0 mg/kg/injection, schedule: Q01DX009 (ip), vehicle: saline with Tween-80) is reported as 6 of 6 and the survivor count [1] is reported as 6 of 6. The survivor count [2] was 6 of 6.
For COc1cccc(Sc2ccc([N+](=O)[O-])c3nonc23)c1, the survivor count [1] was 5 of 7.
C[N+](C)(Cn1nc(Cl)c2cc([N+](=O)[O-])ccc21)Cn1nc(Cl)c2cc([N+](=O)[O-])ccc21 was tested, and the survivor count [7] was 0 of 6.
With CNC(=O)O/N=C(\CN=[N+]=[N-])C(C)(C)C the T/C (dose: 0.2 mg/kg/injection, schedule: Q01DX009 (ip), vehicle: saline) was 125 % of control, the T/C (dose: 0.39 mg/kg/injection, schedule: Q01DX009 (ip), vehicle: saline) was 127 % of control and the survivor count (dose: 0.78 mg/kg/injection, schedule: Q01DX009 (ip), vehicle: saline) was 6 of 6. For the same compound, the survivor count (dose: 1.56 mg/kg/injection, schedule: Q01DX009 (ip), vehicle: saline) was 0 of 6.
